Measurements published in patent publication US20250109127A1, “METHODS OF USE OF PHENOXYPROPYLAMINE COMPOUNDS TO TREAT DEPRESSION” (Minerva Neurosciences, Inc., priority 2013, published 2025).
Values joined by “and” are separate entries in the source; they are usually repeats but may differ in a detail not shown here. Equal values may be shown once. Where a name gives a salt, the structure may show the parent alone. Further values from the same series stand in other lists.

Tested on: DOPAC release in the rat prefrontal cortex
Assay: Microdialysis: DOPAC release in prefrontal cortex after I.P. administration
Assay type: in vivo
Conditions: hydrochloride
Procedure: The aim of the study was to evaluate, using microdialysis, the effects of an intraperitoneal (I.P.) administration in rats of three different doses of SON-117 on dopamine and its metabolites, serotonin and its metabolite (5-HIAA), and norepinephrine levels in prefrontal cortex.
Thirty-two adult male Wistar rats were used for the whole study (4 groups of eight animals planned for the study, Table 1).
Surgery was performed on rats weighing about 300 g at the beginning of the experiments. Rats were anaesthetized with Ketamine (50 mg/kg) & Xylazine (15 mg/kg) by intramuscular administration. The animals were placed in a stereotaxic apparatus in the flat-skull position at a constant setting of −3.3 mm between ear bars and the incisor bar. The animals were treated with a local anesthesic (xylocaine 1%, Astra Zeneca) and an analgesic (Temgesic, from Schering Plough, 0.05 mg/kg, s.c.). A rostrocaudal midline incision was made with a lancet to expose the dorsal skull surface. The “stereotaxic zero” was defined by the Bregma in accordance with Paxinos and Watson's atlas (1986). A hole was drilled in the skull with a drill and the meninges were pierced with a sterile needle to implant a CMA12 guide cannula which later received the dialysis probe.
Coordinates used for implanting guide cannula in prefrontal cortex from Bregma were anteroposterior 3.7 mm, mediolateral 0.8 mm, and dorsoventral −2 mm (top of the probe was at −5 mm). The guide cannula was fixed to the skull with two stainless steel screws (1.88 mm outside diameter) anchored. An application of dental cement was added. A plastic collar allowed each animal to be tethered to a Swivel assembly of the CMA 120 awake animal system. Following surgery, rats were kept in individual cages and allowed to recover for a minimum of 3-5 days before the experimentation. The rats were handled and put in plastic bowl for 10 min at least every day to habituate the animals to their new environment for the dialysis. An I.P. administration with saline was also performed every day.
Dialysis probes (CMA12/3 mm, membrane, 20 kD cut-off, Carnegie Medicine, Stockholm, Sweden), were carefully washed before inserting into the guide cannula. The wash was performed with the artificial cerebrospinal fluid (aCSF) medium (NaCl 147 mM, KCl 2.7 mM, CaCl2 1.2 mM, MgCl2 0.85 mM) at room temperature. The dialysis system was then equilibrated at 20° C. at a perfusion rate of 1 μl/min with a Carnegie pump (CMA100). All catheters (FEP tubing, internal volume of 1.2 μl/10 cm, and tubing adaptors) used for microdialysis were treated in the same conditions.
The probes duly prepared were inserted into the guide cannula and the CMA120 Swivel assembly secured to the animal using a plastic collar. Flow through the dialysis probe with aCSF was maintained at a rate of 1 μl/min during the whole experimentation. The first four fractions (corresponding to 2 hours) were discarded to avoid the effects of parenchymal disturbance and to ensure that an approximate steady-state level was reached. Fractions were then collected over a period of 8.5 h during which time the animals remained quiet. The dialysates were automatically collected with an autosampler (microfraction collector CMA 140, Carnegie Medicin) and stored at −80° C. until analysis. […] Perfusion was then maintained for 7 hours with aCSF. The dialysates (30 μl) were collected into 300 μl vials, transferred into dry ice and then kept frozen (−80° C.) until analysis. Frozen samples were shipped to a partner for analysis. At the end of the microdialysis study, a PBS with colored ink was perfused through the probe in order to visualize the dialyzed area.
Catecholamine assay: Concentrations of dopamine, DOPAC, HVA, 5-HIAA, 5-HT, and norepinephrin were determined for each sample by HPLC coupled with electrochemical detection.

Cc1nnc(-c2cc3c(OC[C@@H](O)CN4CCC(c5ccc(Cl)c(Cl)c5)CC4)cccc3o2)o1 [SON-117, (S)-1-(4-(3,4-dichlorophenyl)piperidino)-3-(2-(5-methyl-1,3,4-oxadiazol-2-yl)benzo(b)furan-4-yloxy)-2-propanol hydrochloride]
DOPAC (% of respective basal), individual animal (0.1 mg/kg I.P., T0-T30 min, c2-c9 = R#13,14,20,19,25,26,31,32): 84.64 % of respective basal and 90.8 % of respective basal and 75.40 % of respective basal and 81.08 % of respective basal and 76.10 % of respective basal and 82.04 % of respective basal
DOPAC (% of respective basal), individual animal (0.1 mg/kg I.P., T6 h 30-T7 h, c2-c9 = R#13,14,20,19,25,26,31,32): 140.41 % of respective basal and 97.01 % of respective basal and 134.95 % of respective basal and 45.66 % of respective basal
DOPAC (% of respective basal), individual animal (0.1 mg/kg I.P., T-30 min-T0 (before administration), c2-c9 = R#13,14,20,19,25,26,31,32): 81.22 % of respective basal and 101.50 % of respective basal and 94.05 % of respective basal and 96.94 % of respective basal and 92.84 % of respective basal and 98.39 % of respective basal and 76.08 % of respective basal and 85.53 % of respective basal
DOPAC (% of respective basal), individual animal (0.1 mg/kg I.P., T-1 h 30-T-1 h (before administration), c2-c9 = R#13,14,20,19,25,26,31,32): 129.17 % of respective basal and 100.00 % of respective basal and 105.59 % of respective basal and 107.21 % of respective basal and 105.12 % of respective basal and 93.24 % of respective basal and 117.28 % of respective basal and 115.83 % of respective basal
DOPAC (% of respective basal), individual animal (0.1 mg/kg I.P., T-1 h-T-30 min (before administration), c2-c9 = R#13,14,20,19,25,26,31,32): 89.54 % of respective basal and 102.68 % of respective basal and 100.36 % of respective basal and 95.94 % of respective basal and 102.04 % of respective basal and 108.38 % of respective basal and 106.62 % of respective basal and 98.63 % of respective basal
DOPAC (% of respective basal), individual animal (0.3 mg/kg I.P., T0-T30 min, c2-c9 = R#11,12,18,23,29,30,17,24): 85.09 % of respective basal and 80.10 % of respective basal and 92.27 % of respective basal and 85.69 % of respective basal and 85.41 % of respective basal and 88.08 % of respective basal and 86.57 % of respective basal and 85.64 % of respective basal
DOPAC (% of respective basal), individual animal (0.3 mg/kg I.P., T30-T1 h, c2-c9 = R#11,12,18,23,29,30,17,24): 85.58 % of respective basal and 74.71 % of respective basal and 87.18 % of respective basal and 93.82 % of respective basal and 86.64 % of respective basal and 78.70 % of respective basal and 84.26 % of respective basal and 83.69 % of respective basal
DOPAC (% of respective basal), individual animal (0.3 mg/kg I.P., T1 h 30-T2 h, c2-c9 = R#11,12,18,23,29,30,17,24): 87.35 % of respective basal and 114.57 % of respective basal and 107.81 % of respective basal and 96.27 % of respective basal and 90.51 % of respective basal and 51.10 % of respective basal and 190.48 % of respective basal and 79.29 % of respective basal
DOPAC (% of respective basal), individual animal (0.3 mg/kg I.P., T1 h-T1 h 30, c2-c9 = R#11,12,18,23,29,30,17,24): 98.25 % of respective basal and 77.65 % of respective basal and 100.07 % of respective basal and 119.82 % of respective basal and 100.62 % of respective basal and 81.54 % of respective basal and 73.52 % of respective basal and 99.76 % of respective basal
DOPAC (% of respective basal), individual animal (0.3 mg/kg I.P., T2 h 30-T3 h, c2-c9 = R#11,12,18,23,29,30,17,24): 76.55 % of respective basal and 75.99 % of respective basal and 85.84 % of respective basal and 96.38 % of respective basal and 83.69 % of respective basal and 85.18 % of respective basal and 85.42 % of respective basal and 81.06 % of respective basal
DOPAC (% of respective basal), individual animal (0.3 mg/kg I.P., T2 h-T2 h 30, c2-c9 = R#11,12,18,23,29,30,17,24): 66.65 % of respective basal and 83.61 % of respective basal and 92.00 % of respective basal and 86.82 % of respective basal and 82.67 % of respective basal and 85.40 % of respective basal and 85.77 % of respective basal and 72.98 % of respective basal
DOPAC (% of respective basal), individual animal (0.3 mg/kg I.P., T3 h 30-T4 h, c2-c9 = R#11,12,18,23,29,30,17,24): 89.58 % of respective basal and 80.38 % of respective basal and 137.29 % of respective basal and 79.66 % of respective basal and 97.63 % of respective basal and 77.03 % of respective basal and 99.67 % of respective basal
DOPAC (% of respective basal), individual animal (0.3 mg/kg I.P., T3 h-T3 h 30, c2-c9 = R#11,12,18,23,29,30,17,24): 85.17 % of respective basal and 87.70 % of respective basal and 87.86 % of respective basal and 71.48 % of respective basal and 91.76 % of respective basal and 88.62 % of respective basal and 73.02 % of respective basal
DOPAC (% of respective basal), individual animal (0.3 mg/kg I.P., T4 h 30-T5 h, c2-c9 = R#11,12,18,23,29,30,17,24): 96.62 % of respective basal and 146.30 % of respective basal and 83.52 % of respective basal and 95.49 % of respective basal and 71.70 % of respective basal and 75.77 % of respective basal and 202.20 % of respective basal and 86.78 % of respective basal
DOPAC (% of respective basal), individual animal (0.3 mg/kg I.P., T4 h-T4 h 30, c2-c9 = R#11,12,18,23,29,30,17,24): 110.76 % of respective basal and 90.58 % of respective basal and 82.07 % of respective basal and 109.53 % of respective basal and 101.69 % of respective basal and 85.15 % of respective basal and 91.12 % of respective basal and 83.07 % of respective basal
DOPAC (% of respective basal), individual animal (0.3 mg/kg I.P., T5 h 30-T6 h, c2-c9 = R#11,12,18,23,29,30,17,24): 89.75 % of respective basal and 107.44 % of respective basal and 79.72 % of respective basal and 93.76 % of respective basal and 75.54 % of respective basal and 76.87 % of respective basal and 91.42 % of respective basal and 94.90 % of respective basal
DOPAC (% of respective basal), individual animal (0.3 mg/kg I.P., T5 h-T5 h 30, c2-c9 = R#11,12,18,23,29,30,17,24): 43.91 % of respective basal and 74.34 % of respective basal and 91.63 % of respective basal and 88.32 % of respective basal and 75.80 % of respective basal and 83.53 % of respective basal and 101.20 % of respective basal and 80.44 % of respective basal
DOPAC (% of respective basal), individual animal (0.3 mg/kg I.P., T6 h 30-T7 h, c2-c9 = R#11,12,18,23,29,30,17,24): 78.25 % of respective basal and 118.73 % of respective basal and 87.14 % of respective basal and 129.40 % of respective basal and 80.10 % of respective basal and 82.91 % of respective basal and 104.34 % of respective basal and 94.82 % of respective basal
